Results deposited as PubChem BioAssay AID504793 (Drosophila RNAi Screening Center, 2011).

- Screen: 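Genes required for cells to halt at G2/M after double-strand DNA breaks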 (primary screen)
- System: Drosophila S2R+ cells
- Knock-down reagent: long dsRNA against Drosophila genes, about 0.25 µg dsRNA per well
- Duration: 4 days of dsRNA, then 4 hours of drug before read-out
- Challenge: doxorubicin 0.5 µM for 4 hours to cause double-strand breaks, in cells also given a low, harmless dose of dsRNA against nbs to sensitise the assay
- Read-out: 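Mitotic index as the number of phospho-histone H3-positive cells in each well following doxorubicin, given as raw counts without normalisation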
- Scale: mitotic cells: higher = more cells in mitosis, weaker G2 arrest
- Rule for the call: 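a call needs confirmation in secondary tests, with other dsRNAs and a check of mitotic timing without damage, not just a high primary count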
- Meaning of the calls: active = confirmed in follow-up tests; inactive = not confirmed
The screen tested about 23,000 reagents; below is a random part of those with a known target gene and a result. Of all reagents, 62 (0.27%) got an active call. 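Calls come from follow-up tests whose scores are not deposited, so confirmed genes may have low counts here; counts are not normalised per plate.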 Raw values vary from plate to plate and are shown uncorrected. Unmarked entries are inactive. Names joined by + are all predicted targets of the reagent.

gene	dsRNA	mitotic cells, replicate 1	mitotic cells, replicate 2
PK2-R2 (Pyrokinin 2 receptor 2)	DRSC16448	5	
PK2-R2 (Pyrokinin 2 receptor 2)	DRSC25536	8	
CG4998	DRSC10466	4	
CG4998	DRSC22911	14	
rasp	DRSC08191	2	
Miro (Mitochondrial Rho)	DRSC15795	4	
yellow-f2	DRSC16372	5	
yellow-f2	DRSC26523	4	
Tmtc1 (Transmembrane O-mannosyltransferase targeting cadherins 1)	DRSC00151	5	
Qtzl (Quetzalcoatl)	DRSC01221	6	
CG31391	DRSC16047	10	
CG6484	DRSC06991	10	
CG6484	DRSC28087	6	
CG7920	DRSC16346	7	
CG7920	DRSC21594	7	
CG33768	DRSC11715	5	
CG13427	DRSC06389	6	
Ugt302K1 (UDP-glycosyltransferase family 302 member K1)	DRSC16086	7	
nopo (no poles)	DRSC06918	4	
olf413	DRSC11543	17	
olf413	DRSC11679	6	11
olf413	DRSC11721	5	
olf413	DRSC11833	8	
stg (string)	DRSC17071	9	
stg (string)	DRSC27238	9	
stg (string)	DRSC37007	2	
ninaE (neither inactivation nor afterpotential E)	DRSC17014	14	
ninaE (neither inactivation nor afterpotential E)	DRSC25724	4	
CG15343	DRSC18028	7	
Tsf3 (Transferrin 3)	DRSC06849	7	
CG32773 (retired record)	DRSC17330	4	
Msr-110	DRSC11227	6	
Msr-110	DRSC25246	8	
dbe (dribble)	DRSC00811	5	
CG8414	DRSC07168	7	
CG18754	DRSC15387	9	
MFS16 (Major Facilitator Superfamily Transporter 16)	DRSC04051	4	
MFS16 (Major Facilitator Superfamily Transporter 16)	DRSC26536	7	
Hsp70Bb + Hsp70Ba + Hsp70Bbb	DRSC28114	2	
Cp38 (Chorion protein 38)	DRSC18453	5	
Sgsh (N-sulfoglucosamine sulfohydrolase)	DRSC14771	4	
CG2444	DRSC19846	6	
CG9986	DRSC16586	4	
CG9986	DRSC29323	6	
zen2 (zerknullt-related)	DRSC12633	4	
zen2 (zerknullt-related)	DRSC27908	4	
CG7763	DRSC07043	7	
Past1 (Putative Achaete Scute Target 1)	DRSC16784	10	
CG6574	DRSC16070	14	
t-Grip84 (testis-specific gamma-tubulin ring protein 84)	DRSC10904	9	
yellow-c + CIAPIN1	DRSC01898	6	
Txl (Thioredoxin-like)	DRSC11310	4	
CG13488	DRSC04133	4	
pck (pickel)	DRSC18565	5	
CG1077	DRSC12146	6	
CG1077	DRSC26068	5	
bigmax	DRSC15481	7	
bigmax	DRSC27542	10	
CG30095	DRSC07175	9	
CG11353	DRSC08182	9	
qless	DRSC15103	16	
qless	DRSC15507	6	
CG31675	DRSC01825	2	
CG31675	DRSC26340	10	
AdamTS-A (ADAM metallopeptidase with thrombospondin type 1 motif A)	DRSC14992	4	
AdamTS-A (ADAM metallopeptidase with thrombospondin type 1 motif A)	DRSC15966	5	
Ir94a (Ionotropic receptor 94a)	DRSC13538	2	
Ir94a (Ionotropic receptor 94a)	DRSC28031	8	
EMC7 (ER membrane protein complex subunit 7)	DRSC07162	5	
CG8738	DRSC07256	11	
fs(1)N (female sterile (1) Nasrat)	DRSC18578	10	
eIF4E4 (eukaryotic translation initiation factor 4E4)	DRSC09701	5	
CG6712	DRSC02981	6	
CG6712	DRSC21690	18	
CG13315	DRSC09986	4	

Laid out differently: entries from further up
| gene | dsRNA | mitotic cells, replicate 1 | mitotic cells, replicate 2 |
| --- | --- | --- | --- |
| nopo (no poles) | DRSC06918 | 4 | – |
| olf413 | DRSC11543 | 17 | – |
| olf413 | DRSC11679 | 6 | 11 |
| olf413 | DRSC11721 | 5 | – |
| olf413 | DRSC11833 | 8 | – |
| stg (string) | DRSC17071 | 9 | – |
| stg (string) | DRSC27238 | 9 | – |
| stg (string) | DRSC37007 | 2 | – |
| ninaE (neither inactivation nor afterpotential E) | DRSC17014 | 14 | – |
| ninaE (neither inactivation nor afterpotential E) | DRSC25724 | 4 | – |
